Test results from publication PMC12785948.
Results are given in words; binding and its absence hold for the method and conditions named. Binding seen in cells or lysates may run through a third protein. Some binding calls cover weakened binding; strength is not graded here.

The chains behind the UniProt entries cited, without tags or fusion partners.
UniProt P37238: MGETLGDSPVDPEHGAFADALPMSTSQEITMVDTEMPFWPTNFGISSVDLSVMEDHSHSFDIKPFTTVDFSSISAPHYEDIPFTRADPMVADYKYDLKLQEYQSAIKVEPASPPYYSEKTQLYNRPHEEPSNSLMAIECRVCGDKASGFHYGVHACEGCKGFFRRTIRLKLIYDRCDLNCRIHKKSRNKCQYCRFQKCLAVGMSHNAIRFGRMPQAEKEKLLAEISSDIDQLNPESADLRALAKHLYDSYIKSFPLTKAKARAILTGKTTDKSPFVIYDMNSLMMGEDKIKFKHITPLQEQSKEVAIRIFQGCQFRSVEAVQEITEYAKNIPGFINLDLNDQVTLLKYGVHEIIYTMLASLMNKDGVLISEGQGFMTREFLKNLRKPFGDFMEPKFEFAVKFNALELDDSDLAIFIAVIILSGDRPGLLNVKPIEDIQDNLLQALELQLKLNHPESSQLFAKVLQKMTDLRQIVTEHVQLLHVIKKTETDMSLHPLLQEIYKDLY
UniProt Q8BUN5: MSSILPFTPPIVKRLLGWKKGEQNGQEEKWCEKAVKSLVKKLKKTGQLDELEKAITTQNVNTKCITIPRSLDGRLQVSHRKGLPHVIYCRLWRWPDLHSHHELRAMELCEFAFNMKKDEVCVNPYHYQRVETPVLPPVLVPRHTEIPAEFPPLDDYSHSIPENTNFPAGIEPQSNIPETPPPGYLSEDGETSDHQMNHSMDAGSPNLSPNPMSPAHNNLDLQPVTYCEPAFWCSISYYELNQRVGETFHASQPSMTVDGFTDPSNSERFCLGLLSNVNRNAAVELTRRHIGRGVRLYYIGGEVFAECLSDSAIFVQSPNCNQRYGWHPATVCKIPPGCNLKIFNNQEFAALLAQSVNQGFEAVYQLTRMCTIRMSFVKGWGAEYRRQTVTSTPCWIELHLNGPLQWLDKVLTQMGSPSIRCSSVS
UniProt P46935: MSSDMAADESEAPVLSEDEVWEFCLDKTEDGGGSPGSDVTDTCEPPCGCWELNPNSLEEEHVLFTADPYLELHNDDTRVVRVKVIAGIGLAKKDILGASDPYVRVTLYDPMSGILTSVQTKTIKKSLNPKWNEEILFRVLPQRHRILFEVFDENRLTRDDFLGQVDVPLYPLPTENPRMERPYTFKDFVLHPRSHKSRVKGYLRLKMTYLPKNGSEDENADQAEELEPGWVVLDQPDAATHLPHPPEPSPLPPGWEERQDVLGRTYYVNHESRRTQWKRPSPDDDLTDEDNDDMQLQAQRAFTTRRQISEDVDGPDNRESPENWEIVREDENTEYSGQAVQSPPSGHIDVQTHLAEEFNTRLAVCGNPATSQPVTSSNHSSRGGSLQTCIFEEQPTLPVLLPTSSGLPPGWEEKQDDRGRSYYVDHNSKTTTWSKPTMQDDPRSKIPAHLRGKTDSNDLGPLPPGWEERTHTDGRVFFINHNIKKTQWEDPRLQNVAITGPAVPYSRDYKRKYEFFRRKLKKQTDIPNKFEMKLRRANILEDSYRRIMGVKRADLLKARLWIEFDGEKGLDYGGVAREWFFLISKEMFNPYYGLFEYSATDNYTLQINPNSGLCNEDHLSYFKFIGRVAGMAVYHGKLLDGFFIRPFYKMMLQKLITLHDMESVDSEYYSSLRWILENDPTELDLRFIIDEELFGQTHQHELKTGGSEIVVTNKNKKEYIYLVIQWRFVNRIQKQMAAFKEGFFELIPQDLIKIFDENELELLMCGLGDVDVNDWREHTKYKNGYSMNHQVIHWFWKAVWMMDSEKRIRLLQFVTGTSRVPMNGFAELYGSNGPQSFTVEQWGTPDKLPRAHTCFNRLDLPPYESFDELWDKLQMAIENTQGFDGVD

Legend:
[1] = biological target: Peroxisome proliferator-activated receptor gamma (mouse (endogenous in primary mouse pulmonary fibroblasts)) (UniProt P37238); assay: co-IP; cells lysed in RIPA buffer with protease inhibitors; magnetic beads carrying a p-Smad3 antibody, a PPARγ antibody or IgG, 1 h at room temperature; Western blot; cells treated with lathyrol or pioglitazone; PPARγ siRNA in Figure 5E
[2] = biological target: Phosphorylated Smad3 (mouse (endogenous in primary mouse pulmonary fibroblasts)) (UniProt Q8BUN5); assay: as above

Row | binding [1] | binding [2] | Substance
1 | binds |  | Nedd4 (from UniProt P46935 1-887) (enzyme)
2 |  | binds | Peroxisome proliferator-activated receptor gamma (from UniProt P37238 1-505)
